From patent publication US10064928B2, “Peptides and combination of peptides for use in immunotherapy against CLL and other cancers” (IMMATICS BIOTECHNOLOGIES GMBH, priority 2015, dated 2018) come the findings set out here.

The test system of series [1] is CLL samples compared to a panel of normal tissues. The series is described as follows: Identification and label-free relative LC-MS quantitation of HLA-presented peptides (presentation profiles and scores). Set-up: species or system human; key: very highly over-presented on tumors compared to a panel of normal tissues (+++); highly over-presented on tumors compared to a panel of normal tissues (++); over-presented on tumors compared to a panel of normal tissues (+). Particulars: presentation score; over-presentation on tumors (CLL samples) compared to a panel of normal tissues.

In series [2] the test system is other tumor types (e.g. non-Hodgkin lymphoma, lung cancer). Kind of series: Presentation of the peptides on additional tumor types (LC-MS, Tables 4A/4B, FIG. 1). Particulars: for Other relevant organs/diseases: Table 4A: additional tumor types where the peptide was over-presented on more than 5% of the measured tumor samples, or presented on more than 5% with ratio of geometric means tumor vs normal tissues larger than 3; for Additional Entities: Table 4B: additional tumour types with over-presentation (including specific presentation) on more than 5% of the measured tumour samples, or presentation on more than 5% with ratio of geometric means tumour vs normal tissues larger than 3, extended normal tissue panel. Also noted: species or system human.

With “25 (ATYSGLESQSV; listed as Homo sapiens) [compound 25]”, the “Peptide Presentation” value in series [1] is “+”. Further, in series [2], the Other relevant organs/diseases result is on record as “Melanoma” and the “Additional Entities” value was “AML”.
For the substance “22 (ALWDPVIEL; listed as Homo sapiens) [compound 22]”, the “Peptide Presentation” value in series [1] is given as “+++”. In addition, in series [2], the Other relevant organs/diseases result is recorded as “NHL”.
With “78 (GLPSFLTEV; listed as Homo sapiens) [compound 78]”, the “Peptide Presentation” value in series [1] is “+++”. Besides, the Other relevant organs/diseases entry in series [2] is given as “HCC, NHL, AML, Melanoma”.
With “204 (GLLQINDKIAL; listed as Homo sapiens) [compound 204]”, the “Peptide Presentation” value in series [1] was “++”. Moreover, in series [2], the Other relevant organs/diseases result is “SCLC, RCC, HCC, Melanoma, OC, Urinary bladder cancer” and the “Additional Entities” value is reported as “BRCA, Uterine Cancer, AML”.
Take “228 (FLGGLSPGV; listed as Homo sapiens) [compound 228]”: the “Peptide Presentation” value in series [1] is reported as “++”. In addition, in series [2], the Other relevant organs/diseases result is given as “NHL, Esophageal Cancer” and the “Additional Entities” value is reported as “SCLC, BRCA, Uterine Cancer, AML, HNSCC”.
For the substance “51 (FLVEAPHDWDL; listed as Homo sapiens) [compound 51]”, in series [1], the “Peptide Presentation” value is recorded as “++”. Besides, in series [2], the “Additional Entities” value is reported as “Uterine Cancer”.
On to “164 (SVHKGFAFV; listed as Homo sapiens) [compound 164]”, for which, in series [1], the “Peptide Presentation” value is listed as “+++”. In series [2], the Other relevant organs/diseases result is given as “NSCLC, RCC, Brain Cancer, GC, AML, Esophageal Cancer, Urinary bladder cancer, Uterine Cancer” and the “Additional Entities” value is recorded as “CRC, Melanoma, HNSCC”.
For “350 (ALEDRVWEL; listed as Homo sapiens) [compound 350]”, in series [1], the “Peptide Presentation” value is reported as “+”. Moreover, the Other relevant organs/diseases entry in series [2] is given as “NHL, Esophageal Cancer”.
Consider “7 (ALLERTGYTL; listed as Homo sapiens) [compound 7]”, for which, in series [1], the “Peptide Presentation” value is “+++”. Further, in series [2], the Other relevant organs/diseases result is reported as “HCC, NHL” and the “Additional Entities” value is reported as “Uterine Cancer, AML”.
Turning to “371 (SLADDSVLERL; listed as Homo sapiens) [compound 371]”, the “Peptide Presentation” value in series [1] is listed as “+”. For the same substance, the Other relevant organs/diseases result in series [2] is given as “RCC, HCC, NHL, AML, Esophageal Cancer, Urinary bladder cancer”.
Regarding “378 (YILGKFFAL; listed as Homo sapiens) [compound 378]”, the “Peptide Presentation” value in series [1] is “+”. For the same substance, in series [2], the Other relevant organs/diseases result is on record as “NHL, AML” and the “Additional Entities” value is recorded as “Melanoma, Esophageal Cancer”.
As to “351 (ALSEKLARL; listed as Homo sapiens) [compound 351]”, the “Peptide Presentation” value in series [1] is “+”. For the same substance, in series [2], the Other relevant organs/diseases entry was “HCC, NHL, AML, Urinary bladder cancer” and the “Additional Entities” value is on record as “CRC, HNSCC, Melanoma, NSCLC, OC, PC, Brain Cancer, RCC, Uterine Cancer”.
“89 (ILDFGTFQL; listed as Homo sapiens) [compound 89]”: the “Peptide Presentation” value in series [1] is “+++”. In series [2], the Other relevant organs/diseases entry is listed as “NHL” and the “Additional Entities” value is given as “BRCA”.
Regarding “290 (LANPHELSL; listed as Homo sapiens) [compound 290]”, the “Peptide Presentation” value in series [1] is “+++”. The Other relevant organs/diseases entry in series [2] is listed as “AML”.
For the substance “240 (ILARDILEI; listed as Homo sapiens) [compound 240]”, the “Peptide Presentation” value in series [1] was “++”. In series [2], the Other relevant organs/diseases entry is given as “NHL, Urinary bladder cancer” and the “Additional Entities” value was “Melanoma”.
Turning to “341 (LLAELPASVHA; listed as Homo sapiens) [compound 341]”, in series [1], the “Peptide Presentation” value is given as “++”. Besides, in series [2], the Other relevant organs/diseases entry is listed as “HCC, NHL, Urinary bladder cancer”.
Take “211 (LIDVKPLGV; listed as Homo sapiens) [compound 211]”: the “Peptide Presentation” value in series [1] is “+++”. In addition, in series [2], the Other relevant organs/diseases result is on record as “NHL, BRCA, Melanoma” and the “Additional Entities” value was “RCC, Brain Cancer, HCC, Esophageal Cancer, HNSCC”.
Consider “20 (ALVDPGPDFVV; listed as Homo sapiens) [compound 20]”, for which the “Peptide Presentation” value in series [1] is listed as “+”. For the same substance, in series [2], the Other relevant organs/diseases result was “NHL”.
As to “49 (FLTDLFAQL; listed as Homo sapiens) [compound 49]”, the “Peptide Presentation” value in series [1] was “+”. Further, the “Additional Entities” value in series [2] is given as “NHL, Melanoma”.
As to “362 (ILTELGGFEV; listed as Homo sapiens) [compound 362]”, the “Peptide Presentation” value in series [1] is “+”. Moreover, in series [2], the Other relevant organs/diseases result was “NHL” and the “Additional Entities” value is recorded as “AML, PrC, BRCA, PC, CRC, HCC, HNSCC, Melanoma, NSCLC, OC, Esophageal Cancer, GC, RCC, SCLC, Urinary Bladder Cancer, Uterine Cancer”.
As to “323 (SLDLFNCEV; listed as Homo sapiens) [compound 323]”, the “Peptide Presentation” value in series [1] is listed as “+++”. Moreover, in series [2], the Other relevant organs/diseases entry is reported as “NHL” and the “Additional Entities” value is on record as “Uterine Cancer, AML”.
For “248 (KTVEPPISQV; listed as Homo sapiens) [compound 248]”, in series [1], the “Peptide Presentation” value was “+”. The Other relevant organs/diseases entry in series [2] is given as “NHL”.
“126 (LLPEGGITAI; listed as Homo sapiens) [compound 126]”: the “Peptide Presentation” value in series [1] is “+++”. Also, in series [2], the Other relevant organs/diseases entry is “NHL” and the “Additional Entities” value is given as “SCLC, HCC, Melanoma, Uterine Cancer, HNSCC”.
The corresponding values for “101 (ILVVIEPLL; listed as Homo sapiens) [compound 101]” are “+++”, “NHL” and “Uterine Cancer”.
Consider “258 (RLDYITAEI; listed as Homo sapiens) [compound 258]”, for which, in series [1], the “Peptide Presentation” value is listed as “++”. Moreover, in series [2], the Other relevant organs/diseases entry is “RCC, NHL, AML, Melanoma” and the “Additional Entities” value is given as “GC, Uterine Cancer”.
“217 (ALDEPPYLTV; listed as Homo sapiens) [compound 217]”: the “Peptide Presentation” value in series [1] is “+”. Besides, in series [2], the Other relevant organs/diseases result is given as “NHL, Melanoma” and the “Additional Entities” value is “AML”.
Regarding “332 (VMIQHVENL; listed as Homo sapiens) [compound 332]”, the “Peptide Presentation” value in series [1] was “+++”. The Other relevant organs/diseases result in series [2] is on record as “NHL”.
For the substance “14 (ALLRLLPGL; listed as Homo sapiens) [compound 14]”, the “Peptide Presentation” value in series [1] was “+”. Moreover, in series [2], the Other relevant organs/diseases entry is “NHL, AML” and the “Additional Entities” value is “BRCA, Melanoma, HNSCC”.
As for “339 (GLWGTVVNI; listed as Homo sapiens) [compound 339]”, in series [1], the “Peptide Presentation” value is “+”. In addition, in series [2], the Other relevant organs/diseases result is “NHL, AML, Melanoma, Uterine Cancer” and the “Additional Entities” value was “HNSCC”.
Regarding “271 (VIRNIVEAA; listed as Homo sapiens) [compound 271]”, the “Peptide Presentation” value in series [1] was “++”. Besides, the Other relevant organs/diseases entry in series [2] is on record as “GC, CRC, PC, AML, Esophageal Cancer”.
In the case of “200 (YMFEEVPIVI; listed as Homo sapiens) [compound 200]”, the “Peptide Presentation” value in series [1] is “+++”. For the same substance, in series [2], the Other relevant organs/diseases result was “NSCLC, SCLC, CRC, HCC, NHL, Melanoma, Esophageal Cancer, OC, Urinary bladder cancer, Gallbladder Cancer, Bile Duct Cancer” and the “Additional Entities” value was “BRCA, HNSCC”.
The corresponding values for “275 (VLLFIEHSV; listed as Homo sapiens) [compound 275]” are “+”, “NHL” and “Melanoma”.
Take “357 (FLIQEIKTL; listed as Homo sapiens) [compound 357]”: the “Peptide Presentation” value in series [1] is given as “++”. Also, in series [2], the Other relevant organs/diseases entry is given as “NHL, OC, Urinary bladder cancer” and the “Additional Entities” value is listed as “HCC”.
Take “198 (YLTFLPAEV; listed as Homo sapiens) [compound 198]”: in series [1], the “Peptide Presentation” value was “+++”. Besides, in series [2], the “Additional Entities” value is listed as “BRCA, Uterine Cancer”.
As for “187 (VMDTHLVNI; listed as Homo sapiens) [compound 187]”, the “Peptide Presentation” value in series [1] is given as “+++”. In series [2], the Other relevant organs/diseases entry is “NHL, Urinary bladder cancer” and the “Additional Entities” value is reported as “CRC, Melanoma, Uterine Cancer”.
As to “179 (VLLGLEMTL; listed as Homo sapiens) [compound 179]”, the “Peptide Presentation” value in series [1] is “+++”. In addition, in series [2], the Other relevant organs/diseases result is “NHL, Esophageal Cancer” and the “Additional Entities” value is given as “HNSCC”.
Take “163 (SQLDISEPYKV; listed as Homo sapiens) [compound 163]”: the “Peptide Presentation” value in series [1] was “+”. Moreover, the Other relevant organs/diseases entry in series [2] is “NHL”.
In the case of “72 (GLLDAGKMYV; listed as Homo sapiens) [compound 72]”, the “Peptide Presentation” value in series [1] was “+++”. Moreover, the Other relevant organs/diseases entry in series [2] is “NHL, Melanoma”.
The matching figures for “241 (ILGDILLKV; listed as Homo sapiens) [compound 241]”: “+” and “AML”.
In the case of “355 (FIWPMLIHI; listed as Homo sapiens) [compound 355]”, the “Peptide Presentation” value in series [1] is on record as “+++”. In addition, the “Additional Entities” value in series [2] is “Melanoma, Uterine Cancer”.
For “353 (ATPMPTPSV; listed as Homo sapiens) [compound 353]”, the “Peptide Presentation” value in series [1] is reported as “++”. Besides, in series [2], the Other relevant organs/diseases result is “SCLC, NHL” and the “Additional Entities” value is given as “BRCA, Uterine Cancer, Gallbladder Cancer, Bile Duct Cancer, AML, HNSCC”.
In the case of “30 (ELLEGSEIYL; listed as Homo sapiens) [compound 30]”, the “Peptide Presentation” value in series [1] is listed as “+”. In series [2], the Other relevant organs/diseases entry is on record as “NHL” and the “Additional Entities” value is “CRC, BRCA, Melanoma, Uterine Cancer”.
